{
  "source": "PubChem BioAssay AID1347076",
  "about": "(National Center for Advancing Translational Sciences (NCATS), 2019)",
  "note": "Screen size: about 400,000 compounds; about 13,000 (3.2%) were called active. Inconclusive means that the source gave no clear call. Such entries were picked first, then a sample of the others. Calls follow the shape of the dose curve; as a rule, active = well fitted cell-killing curve with a large enough effect; inconclusive = small, poorly fitted or top-dose-only effect, or effect the other way; inactive = flat fitted curve, though single readings scatter. A potency beside an inconclusive call is a rough fit, not a confirmed value. % is scaled to controls: 0 for no effect and ±100 for the full control effect; potency is read from the fitted curve at half-maximal effect.",
  "data": [
    {"experiment": "qHTS assay for MDR1-selective chemotherapeutics: Primary screen using the drug-selected MDR subline cells KB-V1; also: nearly all actives have a fitted effect of over 60% in size", "conditions": "KB-V1 MDR cells viability, CellTiter-Glo, 72 h; activity change, negative = cytotoxicity: at 46.1 µM (top of the series)", "in_short": "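KB-V1, DMEM (no phenol red) + 10% FBS; cpd pin-transferred, titration series; 72 h, 37 degrees C; CellTiter-Glo, luminescence. Data normalized, curve-fit.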", "values": [
      {"smiles": "O=C1OC(c2ccccc2)Cc2cc(C(=O)N3CCN(c4ccc(F)cc4)CC3)ccc21", "note": "(configuration not stated)", "Potency": "inconclusive: 6.51 µM [cytotoxic, partial curve]"},
      {"smiles": "CNC(=S)NNC(=O)c1oc2nc(-c3ccccc3)cc(-c3ccco3)c2c1N", "Potency": "inconclusive: 25.9 µM [rising, single point]"},
      {"smiles": "O=C1c2cccc3c(Nc4ccccc4Cl)c([N+](=O)[O-])cc(c23)C(=O)N1CCO", "activity change, negative = cytotoxicity": "inactive: -8.14%"},
      {"smiles": "COc1cccc(-c2cc(C(F)(F)F)n3ncc(C(=O)NCC4CCCO4)c3n2)c1", "note": "(configuration not stated)", "Potency": "inconclusive: 18.4 µM [cytotoxic, single point]"},
      {"smiles": "COc1ccccc1CNC(=O)c1ccc(NC2=NC3CS(=O)(=O)CC3S2)cc1", "note": "(configuration not stated)", "Potency": "inconclusive: 20.6 µM [rising, single point]"},
      {"smiles": "CCOC(=O)N1CCN(C(=O)CNC2CCCCCCC2)CC1", "activity change, negative = cytotoxicity": "inactive: -22.2%"},
      {"smiles": "NC(=O)CSc1nnc2ccc(-c3ccc(F)cc3)nn12", "activity change, negative = cytotoxicity": "inactive: -5.11%"},
      {"smiles": "COCCN1Cc2cccc(C(=O)Nc3ccc(Cl)cc3Cl)c2C1=O", "activity change, negative = cytotoxicity": "inactive: -58.1%"},
      {"smiles": "COC(=O)c1ccccc1NC(=O)Cn1c(=O)n(CCC(=O)NC2CCN(Cc3ccccc3)CC2)c(=O)c2ccccc21", "activity change, negative = cytotoxicity": "inactive: -10.8%"},
      {"smiles": "COc1cc(C(=S)N2CCCC2)cc(OC)c1OS(=O)(=O)c1ccc(NC(C)=O)cc1", "activity change, negative = cytotoxicity": "inactive: -16.7%"},
      {"smiles": "COC(=O)c1ccc(CNC(=O)COC(=O)c2ccc(N(C)C)cc2)cc1", "Potency": "inconclusive: 32.6 µM [cytotoxic, single point]"},
      {"smiles": "O=C(CNC(=O)c1cccs1)c1ccc([N+](=O)[O-])cc1", "Potency": "inconclusive: 23.1 µM [rising, single point]"},
      {"smiles": "COC(=O)c1[nH]c2ccccc2c1NC(=O)CN1CCCc2ccccc21", "Potency": "inconclusive: 16.4 µM [cytotoxic, single point]"},
      {"smiles": "Cn1nc(C(=O)OCC(=O)Nc2cc(Cl)ccc2C#N)c2ccccc2c1=O", "Potency": "inconclusive: 7.31 µM [rising, partial curve, poor fit]"},
      {"smiles": "CCCn1c(NC(=O)CCNC(=O)c2ccccc2Cl)nc2ccccc21", "activity change, negative = cytotoxicity": "inactive: 2.7%"},
      {"smiles": "CCCc1nc(Nc2nc3ccccc3o2)nc(C)c1C(=O)OCC", "Potency": "active: 3.66 µM"},
      {"smiles": "CCN(CC)S(=O)(=O)c1ccc(NC(=O)c2cccc3c2C(=O)N(CCOC)C3)cc1", "Potency": "inconclusive: 1.46 µM [cytotoxic, full curve]"},
      {"smiles": "Cc1nn(-c2ccccc2)c(N)c1C(c1ccc(C(C)C)cc1)c1c(C)nn(-c2ccccc2)c1N", "Potency": "inconclusive: 0.82 µM [cytotoxic, full curve]"},
      {"smiles": "CN(C)N=Nc1ccc(S(=O)(=O)NC(=O)Cc2ccccc2)cc1", "Potency": "inconclusive: 20.6 µM [rising, single point]"},
      {"smiles": "S=c1[nH]cc(-c2ccccc2)n1-c1cccc(Cl)c1", "Potency": "inconclusive: 29.1 µM [cytotoxic, single point]"},
      {"smiles": "Cc1ccccc1C(=O)Nc1ccc(-c2nnc(SC(C)C(=O)O)n2C)cc1", "note": "(configuration not stated)", "Potency": "inconclusive: 29.1 µM [rising, single point]"},
      {"smiles": "O=c1c(=O)n(Cc2c(F)cccc2Cl)ccn1Cc1ccccc1", "activity change, negative = cytotoxicity": "inactive: 10.3%"},
      {"smiles": "CC(Cc1c[nH]c2ccccc12)C(=O)NCc1ccco1", "note": "(configuration not stated)", "activity change, negative = cytotoxicity": "inactive: 5.3%"},
      {"smiles": "O=C(N/N=C/c1c[nH]c2ccccc12)c1cc(-c2ccc(-c3ccccc3)cc2)n[nH]1", "Potency": "active: 16.4 µM"},
      {"smiles": "Cc1nn(Cc2cccc(C(=O)N3CCCC(C)C3)c2)c(C)c1[N+](=O)[O-]", "note": "(configuration not stated)", "Potency": "inconclusive: 16.4 µM [cytotoxic, single point]"},
      {"smiles": "CC(C)(C)OC(=O)N(Cc1ccccc1)Cc1cccc(OCc2cccc(NC(=O)c3ccccc3)c2)c1", "activity change, negative = cytotoxicity": "inactive: -0.102%"},
      {"smiles": "Cc1c(Cl)cccc1NC(=O)CSC(C)c1nc2ccccc2c(=O)[nH]1", "note": "(configuration not stated)", "Potency": "inconclusive: 23.1 µM [cytotoxic, single point]"},
      {"smiles": "O=c1cc(O)nc(SCc2ccccc2)n1-c1ccc(F)cc1", "activity change, negative = cytotoxicity": "inactive: -7.6%"},
      {"smiles": "CC(=O)OCc1c(C(F)(F)F)nn(C)c1Oc1ccccc1", "Potency": "inconclusive: 2.91 µM [cytotoxic, partial curve, poor fit]"},
      {"smiles": "COc1nccnc1NS(=O)(=O)c1ccc(NS(=O)(=O)c2ccc(NC(C)=O)cc2)cc1", "Potency": "inconclusive: 29.1 µM [rising, single point]"},
      {"smiles": "CCn1c(-c2ccc(Cl)cc2)n[nH]c1=S", "Potency": "active: 10.3 µM"},
      {"smiles": "Cc1ccc(-n2ncc3c(=O)n(CC(=O)N(C)C)cnc32)cc1", "activity change, negative = cytotoxicity": "inactive: 8.37%"},
      {"smiles": "COc1ccc(C(=O)COc2ccc(F)cc2)c(O)c1C", "activity change, negative = cytotoxicity": "inactive: -1.11%"},
      {"smiles": "Cc1c(C(=O)NCCSc2ccc(Cl)cc2)cccc1[N+](=O)[O-]", "activity change, negative = cytotoxicity": "inactive: -6.59%"},
      {"smiles": "O=C(NCc1cccc(Cl)c1)C1Cc2c(-c3ccccc3)ccnc2O1", "note": "(configuration not stated)", "Potency": "inconclusive: 29.1 µM [cytotoxic, single point]"},
      {"smiles": "O=C(C1CCCO1)N1CCN(C(=S)Nc2ccc(Cl)cc2Cl)CC1", "note": "(configuration not stated)", "Potency": "inconclusive: 18.4 µM [cytotoxic, single point]"},
      {"smiles": "CCC/C(O)=C1\\C(=O)CCCC1=NCCc1c(C)[nH]c2ccc(C)cc12", "Potency": "inconclusive: 7.31 µM [cytotoxic, partial curve, poor fit]"},
      {"smiles": "CN(C)c1ccc(-c2ccnc3c2CC(C)(C(=O)NCCC(F)(F)F)O3)cc1", "note": "(configuration not stated)", "Potency": "inconclusive: 8.2 µM [cytotoxic, partial curve, poor fit]"},
      {"smiles": "O=C(NCc1ccccc1)c1ccc(CS(=O)(=O)Cc2ccccc2F)o1", "Potency": "active: 16.4 µM"},
      {"smiles": "COc1cc(Nc2c3c(nc4ccccc24)CCC3)cc(OC)c1OC", "Potency": "active: 3.66 µM"},
      {"smiles": "O=C(C1CC1)N1c2ccccc2Sc2ccccc21", "Potency": "inconclusive: 18.4 µM [cytotoxic, single point]"},
      {"smiles": "COc1ccc(/C=C/C(=O)Nc2nonc2NC(C)=O)cc1", "activity change, negative = cytotoxicity": "inactive: -0.948%"},
      {"smiles": "COc1ccc(NC(=O)Cn2nnc3ccccc32)c([N+](=O)[O-])c1", "Potency": "inconclusive: 18.4 µM [cytotoxic, single point]"},
      {"smiles": "Nc1ccn(C2OC(COP(=O)(O)O)C(O)C2O)c(=O)n1", "note": "(configuration not stated)", "Potency": "inconclusive: 9.2 µM [cytotoxic, partial curve, poor fit]"},
      {"smiles": "Clc1nnc(N2CCCCC2)c2ccccc12", "Potency": "inconclusive: 16.4 µM [cytotoxic, partial curve]"},
      {"smiles": "CC(NC(=O)CN1CCN(c2ccccc2F)CC1)c1ccccc1", "note": "(configuration not stated)", "activity change, negative = cytotoxicity": "inactive: 0%"},
      {"smiles": "Cc1cc(F)ccc1C(O)c1ncc(-c2ccccc2C(F)(F)F)[nH]1", "note": "(configuration not stated)", "Potency": "inconclusive: 25.9 µM [cytotoxic, partial curve]"},
      {"smiles": "Cc1ccc(-c2cc(C(F)(F)F)c(C#N)c(SCC(=O)O)n2)cc1", "Potency": "inactive"},
      {"smiles": "CC1CCCC(NCC(O)COC(c2ccc(F)cc2)c2ccc(F)cc2)C1C", "note": "(configuration not stated)", "Potency": "active: 18.4 µM"},
      {"smiles": "COc1ccc(NS(=O)(=O)c2ccc(N3CCCCC3)c(N)c2)cc1", "Potency": "inconclusive: 29.1 µM [cytotoxic, single point]"},
      {"smiles": "O=C(NN1C(=O)/C(=C/c2cccs2)SC1=S)c1ccncc1", "Potency": "inconclusive: 6.51 µM [rising, partial curve, poor fit]"},
      {"smiles": "Nc1c(C(=O)c2ccccc2)sc2snc(SCC(=O)c3ccccc3)c12", "activity change, negative = cytotoxicity": "inactive: -19.5%"},
      {"smiles": "S=C(Nc1ccccc1Cl)N(CCCN1CCOCC1)Cc1ccco1", "Potency": "active: 20.6 µM"},
      {"smiles": "CCOc1ccccc1NC(=O)CN1C(=O)C(=O)N(Cc2ccco2)C1=O", "Potency": "inconclusive: 6.51 µM [rising, partial curve]"},
      {"smiles": "COc1ccc(C(=O)NC(=S)Nc2ccc3[nH]c(=O)[nH]c3c2)c(OC)c1", "activity change, negative = cytotoxicity": "inactive: -6.81%"},
      {"smiles": "CCN(CC)CCOc1ccc2nc(N(C)C)sc2c1", "activity change, negative = cytotoxicity": "inactive: -2.11%"},
      {"smiles": "COc1ccc(-c2cc(-c3ccc(F)cc3)nc(N3CCN(C)CC3)n2)cc1", "Potency": "inconclusive: 1.3 µM [cytotoxic, full curve]"},
      {"smiles": "O=S1(=O)c2ccc(Br)cc2N2CCC[C@@H]2CN1Cc1ccc(Cl)cc1", "Potency": "inconclusive: 29.1 µM [cytotoxic, single point]"},
      {"smiles": "Oc1ccc(C[C@@H](CN2CCC[C@@H]2CN2C(=S)NC[C@@H]2Cc2ccccc2)N2C[C@H](Cc3ccccc3)N(CCc3ccccc3)C2=S)cc1", "activity change, negative = cytotoxicity": "inactive: 9.02%"},
      {"smiles": "N=c1c(C(=O)NCCN2CCOCC2)cc2c(=O)n3ccccc3nc2n1CCCN1CCOCC1", "activity change, negative = cytotoxicity": "inactive: -0.0015%"},
      {"smiles": "Cc1cccc(OCC(=O)NCCCNC(=O)c2cccnc2)c1", "Potency": "inconclusive: 18.4 µM [rising, partial curve, poor fit]"},
      {"smiles": "CC1=C(C(=O)N2CCOCC2)CC(CC(=O)NCCCCc2ccccc2)C(=O)N1CCCN1CCCC1=O", "note": "(configuration not stated)", "Potency": "inconclusive: 32.6 µM [rising, partial curve, poor fit]"},
      {"smiles": "CCC(NC(=O)c1ccccc1NC(=O)c1ccco1)C(=O)NC1CCCCC1", "note": "(configuration not stated)", "Potency": "inconclusive: 8.2 µM [cytotoxic, partial curve, poor fit]"},
      {"smiles": "CCCn1c(N)c(N2CCCCC2)c(=O)n(CC(=O)Nc2ccc(C(C)=O)cc2)c1=O", "Potency": "inconclusive: 32.6 µM [rising, single point]"},
      {"smiles": "O=C(CSc1nnc(NC2CC2)s1)NN1C(=O)NC2(CCCCC2)C1=O", "Potency": "inconclusive: 29.1 µM [rising, single point]"},
      {"smiles": "Cc1ccc(Cn2ncc(Cl)c(Cl)c2=O)cc1", "activity change, negative = cytotoxicity": "inactive: -32.7%"},
      {"smiles": "CC(=O)c1cc(Cl)ccc1OCc1cccc(S(=O)(=O)N2CCOCC2)c1", "Potency": "active: 18.4 µM"},
      {"smiles": "CCOc1cccc(C(=O)Nc2ccc3oc(Cc4ccc(Cl)cc4)nc3c2)c1", "Potency": "inconclusive: 18.4 µM [cytotoxic, partial curve, poor fit]"},
      {"smiles": "COc1cccc(NC(=O)N2CCC(C(=O)Nc3ccc(C)cc3C)CC2)c1", "Potency": "active: 14.6 µM"},
      {"smiles": "O=C(Cn1cnc2nc3c(cc2c1=O)CCCC3)N1CCN(c2ccccc2)CC1", "Potency": "inconclusive: 10.3 µM [rising, single point]"},
      {"smiles": "CCn1c(Cc2ccccc2)nnc1SCC(=O)Nc1ccc2c(c1)OCO2", "Potency": "inconclusive: 29.1 µM [cytotoxic, single point]"},
      {"smiles": "OC(c1ccccc1)(c1ccccc1)C1CCN(C(=S)NCCc2ccccc2)CC1", "activity change, negative = cytotoxicity": "inactive: -7.04%"}
    ]}
  ]
}
